Drawing on paper PMC9971600, this text covers binding for one substance.

Sequences of proteins named here, by UniProt entry; tags and fusion partners are left off.
UniProt O94901: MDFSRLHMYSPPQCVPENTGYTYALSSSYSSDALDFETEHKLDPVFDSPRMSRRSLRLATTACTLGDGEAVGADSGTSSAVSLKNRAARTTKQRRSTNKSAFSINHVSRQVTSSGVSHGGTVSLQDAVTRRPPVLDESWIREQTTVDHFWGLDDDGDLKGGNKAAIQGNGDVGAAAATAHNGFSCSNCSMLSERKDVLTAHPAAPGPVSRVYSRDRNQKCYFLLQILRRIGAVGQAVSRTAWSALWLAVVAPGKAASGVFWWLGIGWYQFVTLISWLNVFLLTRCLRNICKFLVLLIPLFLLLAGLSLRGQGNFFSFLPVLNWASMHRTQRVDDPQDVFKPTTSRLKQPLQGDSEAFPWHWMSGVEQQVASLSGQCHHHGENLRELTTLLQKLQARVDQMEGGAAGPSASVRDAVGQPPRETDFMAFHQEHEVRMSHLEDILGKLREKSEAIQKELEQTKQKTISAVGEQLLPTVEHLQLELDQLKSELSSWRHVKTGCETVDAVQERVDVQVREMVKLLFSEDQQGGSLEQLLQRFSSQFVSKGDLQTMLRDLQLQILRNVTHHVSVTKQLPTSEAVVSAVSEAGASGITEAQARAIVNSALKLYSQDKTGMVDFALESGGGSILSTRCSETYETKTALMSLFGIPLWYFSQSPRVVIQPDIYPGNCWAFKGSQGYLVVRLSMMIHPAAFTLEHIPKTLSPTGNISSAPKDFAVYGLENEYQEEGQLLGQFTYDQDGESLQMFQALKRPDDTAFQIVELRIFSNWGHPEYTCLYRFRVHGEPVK

The target of the assay is T1, FLAG-tagged wild-type KASH5 (human) (UniProt Q8N6L0).
T1 sequence: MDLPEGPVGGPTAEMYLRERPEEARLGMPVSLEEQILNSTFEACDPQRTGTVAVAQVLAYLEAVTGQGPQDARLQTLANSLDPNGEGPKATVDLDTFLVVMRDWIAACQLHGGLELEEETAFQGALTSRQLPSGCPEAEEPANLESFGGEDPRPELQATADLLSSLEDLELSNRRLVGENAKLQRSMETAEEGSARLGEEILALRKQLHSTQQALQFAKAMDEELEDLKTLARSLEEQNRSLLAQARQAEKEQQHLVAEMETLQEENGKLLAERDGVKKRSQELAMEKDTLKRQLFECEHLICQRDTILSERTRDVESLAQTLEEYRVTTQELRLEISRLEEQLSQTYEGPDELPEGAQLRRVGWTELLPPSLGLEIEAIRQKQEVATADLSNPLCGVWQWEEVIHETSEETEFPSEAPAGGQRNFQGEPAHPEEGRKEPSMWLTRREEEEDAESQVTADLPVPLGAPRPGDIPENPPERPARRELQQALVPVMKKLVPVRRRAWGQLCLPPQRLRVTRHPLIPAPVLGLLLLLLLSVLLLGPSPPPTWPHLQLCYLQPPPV
Nature of the assay: co-IP; HEK293T cells co-transfected with GFP-SUN1 and FLAG-KASH5-WT or -MUT, 48 h; lysate in 50 mM Tris-HCl pH 7.5, 150 mM NaCl, 0.5% Triton X-100, 2.5 mM EDTA, 1 mM PMSF; anti-DYKDDDDK resin, 4°C, 8 h; six washes; blots with anti-GFP and anti-FLAG.

These are yes or no findings as the source states them, for the method shown. Binding seen in cells or lysates may run through a third protein. Some results given as binding are weak or reduced against the parent protein; the word gives no strength. Where a sequence is shown, tags or fusion partners need not be part of it.

Regarding “GFP-tagged wild-type SUN1 (from UniProt O94901 1-785)”, the binding result is on record as “binds”.
